Results reported in patent US20140206748A1, “COMPOSITIONS AND METHODS RELATED TO PROSTATE CANCER” (Regents of the University of Minnesota, priority 2013, published 2014).
At least one structure is not confirmed: it was looked up by name or label, or the drawing left a doubt.

Experiments:
22Rv1 cells = assay: Growth of 22Rv1 cells under castrate conditions (crystal violet staining); format: cell-based, human; conditions: CSS; 10 μM bicalutamide or 1 μM enzalutamide
androgen receptor (AR) = assay: Quantitative RT-PCR of AR target genes (PSA, hK2, TMPRSS2) in 22Rv1 cells
CWR-R1 cells = conditions: castrate conditions; 10 μM bicalutamide or 1 μM enzalutamide

CC(O)(CS(=O)(=O)c1ccc(F)cc1)C(=O)Nc1ccc(C#N)c(C(F)(F)F)c1 (stereo not shown) [bicalutamide]
growth of 22Rv1 cells under castrate conditions (22Rv1 cells): unaffected | androgen-mediated activation of the AR target genes PSA and hK2 (androgen receptor (AR); 1 nM DHT, 10 μM bicalutamide or 1 μM enzalutamide): able to antagonize | constitutive, androgen-independent expression of PSA and hK2 (androgen receptor (AR); castrate conditions): not by manipulations that block full-length AR | androgen-independent growth of deletion-enriched CWR-R1 cells (CWR-R1 cells): insensitive
